Reference: the supplement of paper PMC6289059
Values joined by “and” are separate entries in the source; they are usually repeats but may differ in a detail not shown here. Equal entries are not always repeated. Structures can show the parent of a compound that is named as a salt. The list shows a part of the results. Many values rest on one well or one pass, so single values are uncertain.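 Hepatocyte-like cells derived from human stem cells with CRISPR-disrupted DGUOK model liver mtDNA depletion syndrome. Each well's ATP signal was scored against other wells on the same plate, and drugs scoring 3 or above were primary hits.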

What follows are compounds tested on DGUOK Δ14/Δ5 iPSC-derived hepatocyte-like cells (SV20) (assay: ATP level (CellTiter-Glo luminescence) Z score relative to plate distribution, under 2-DG glycolysis block; higher = more cellular ATP (rescue of mitochondrial ATP production)). Conditions: 5 µM; treatment time: day 15 to day 20 of differentiation (5 days); 2-deoxy-D-glucose: 20 mM for 24 h before assay.

| Structure (SMILES) | ATP level |
| --- | --- |
| Cn1c(=O)c2nc(C3CCCC3)[nH]c2n(C)c1=O | inactive: -0.376 |
| COC(=O)C[C@H]1C(C)(C)C2(O)OC34CC2C(=O)[C@]1(C)C3CC[C@]1(C)C4=CC(=O)O[C@H]1c1ccoc1 (stereo partly drawn) [8beta-HYDROXYCARAPIN, 3,8-HEMIACETAL] | inactive: -0.889 |
| CNC[C@H](O)c1ccc(O)c(O)c1 | inactive: 1.03 |
| COc1cc(/C=C/C(N)=O)cc(OC)c1OC | inactive: 0.361 |
| O=C1c2ccc(O)c(O)c2C(=O)c2c(O)ccc(O)c21 | inactive: 1.38 |
| CN(C(=O)C(Cl)Cl)c1ccc(OC(=O)c2ccco2)cc1 | inactive: 0.391 |
| Nc1ccn([C@H]2CC[C@@H](CO)O2)c(=O)n1 | inactive: -4.22 |
| Oc1cc(O)c2c(c1)O[C@H](c1cc(O)c(O)c(O)c1)[C@H](O)C2 | inactive: -3.92 |
| COc1ccc(-c2cc(=O)c3cc(OC)ccc3o2)cc1 | inactive: -1.76 |
| CC(=O)c1ccc2c(c1)N(CCCN(C)C)c1ccccc1S2 | inactive: -1.93 |
| CN(C)CCOC(C)(c1ccccc1)c1ccccn1 (configuration not stated) | inactive: -1.65 |
| C=CCNC(N)=S | inactive: 0.365 |
| Oc1c(I)cc(Cl)c2cccnc12 | inactive: -4.71 |
| C=CC(C1=CC(=O)C(OC)=CC1=O)c1ccc(OC)cc1 (configuration not stated) | inactive: -2.28 |
| CC(C)(C#N)c1cc(Cn2cncn2)cc(C(C)(C)C#N)c1 | inactive: -0.696 |
| COc1cc(C)c2c(c1C=O)Oc1c(c(C)c(O)c3c1C(O)OC3=O)OC2=O (configuration not stated) | inactive: 1.73 |
| CC[C@]1(O)C[C@H]2CN(CCc3c([nH]c4ccccc34)[C@@](C(=O)OC)(c3cc4c(cc3OC)N(C=O)[C@H]3[C@@](O)(C(=O)OC)[C@H](OC(C)=O)[C@]5(CC)C=CCN6CC[C@]43[C@@H]65)C2)C1 | inactive: 1.3 |
| NC[C@@H]1O[C@H](O[C@H]2[C@@H](O)[C@H](O[C@@H]3[C@@H](O)[C@H](N)C[C@H](N)[C@H]3O[C@H]3O[C@H](CO)[C@@H](O)[C@H](O)[C@H]3N)O[C@@H]2CO)[C@H](N)[C@@H](O)[C@@H]1O | active: 3.08 |
| COc1ccccc1OCC(O)CO (configuration not stated) | inactive: 0.849 |
| Cc1cc(=O)[nH]c(=S)[nH]1 | inactive: 0.568 and inactive: 0.941 |
| CC(=O)[C@H]1CC[C@H]2[C@@H]3C=CC4=CC(=O)CC[C@@]4(C)[C@@H]3CC[C@]12C | inactive: -0.057 |
| CN1[C@@H]2CC[C@H]1C[C@@H](OC(=O)c1c[nH]c3ccccc13)C2 | inactive: -10.5 |

| Structure (SMILES) | ATP level |
| --- | --- |
| O=C(CCCCCCCC(=O)NCCO)NCCO | inactive: 0.585 |
| Cc1cccc(C)c1OCC(C)N (configuration not stated) | inactive: -0.847 |
| Oc1ccc(/C=C/c2cc(O)cc(O)c2)cc1 | inactive: -0.607 |
| CC(=O)N1CCCC1C(=O)O (configuration not stated) | inactive: -0.332 |
| CCOC(=O)C1=C(COCCN)NC(C)=C(C(=O)OC)C1c1ccccc1Cl (configuration not stated) | inactive: -2.48 |
| Oc1c(Cl)cc(Cl)c(Cl)c1Cc1c(O)c(Cl)cc(Cl)c1Cl | inactive: -12.3 |
| CC(C(=O)O)c1ccc2c(c1)[nH]c1ccc(Cl)cc12 (configuration not stated) | inactive: 1.83 |
| CO/N=C(\C(=O)N[C@@H]1C(=O)N2C(C(=O)O)=C(CSc3nnnn3C)CS[C@H]12)c1csc(N)n1 | inactive: 2.78 |
| O=C(O)C1CCCNC1 (configuration not stated) | inactive: 0.384 |
| Cc1cccc(C)c1NC(=O)C(C)N (configuration not stated) | inactive: -0.818 |
| O=C1c2c(O)cccc2C([C@@H]2O[C@H](CO)[C@@H](O)[C@H](O)[C@H]2O)c2cc(CO)cc(O)c21 (some centres not stated) | inactive: -1.11 |
| Nc1nc2[nH]cnc2c(=S)[nH]1 | inactive: -1.78 and inactive: -13.3 |
| Cc1c(OCC(F)(F)F)ccnc1C[S@@+]([O-])c1nc2ccccc2[nH]1 | inactive: 0.0214 |
| O=c1ccc2cc(O)c(O)cc2o1 | active: 6.03 |
| C[C@H](CCC(=O)O)[C@H]1CC[C@H]2[C@@H]3[C@H](O)C[C@@H]4C[C@H](O)CC[C@]4(C)[C@H]3C[C@H](O)[C@]12C | active: 4.14 |
| CC(=O)OC1CCC2(C)C(=CCC3C2CCC2(C)C(C(C)CCCC(C)C)CCC32)C1 (configuration not stated) | inactive: 1.45 |
| CC(C)=CCC[C@@H](C)[C@H]1CC[C@@]2(C)C3=C(CC[C@]12C)[C@@]1(C)CC[C@H](O)C(C)(C)[C@@H]1CC3 | inactive: 0.327 |
| O=C(OCC(O)CO)c1ccccc1Nc1ccnc2cc(Cl)ccc12 (configuration not stated) | inactive: 0.503 |
| CC(C(=O)O)c1ccc(-c2ccccc2)c(F)c1 (configuration not stated) | inactive: 1.32 |
| Cc1cc(O)c2c(c1)C(=O)c1cccc(O)c1C2=O | inactive: 1.98 |
| COc1cc2c(N3CCN(C(=O)Nc4ccc(OC(C)C)cc4)CC3)ncnc2cc1OCCCN1CCCCC1 | inactive: -4.46 |
| C[C@H]1O[C@@H](O[C@H]2[C@@H](O)C[C@H](O[C@H]3[C@@H](O)C[C@H](O[C@H]4CC[C@@]5(C)[C@H](CC[C@@H]6[C@@H]5C[C@@H](O)[C@]5(C)[C@@H](C7=CC(=O)OC7)CC[C@]65O)C4)O[C@@H]3C)O[C@@H]2C)C[C@H](O)[C@@H]1O | inactive: -26.5 |

A stretch from the list above, as a working copy:

| Structure (SMILES) | ATP level |
| --- | --- |
| O=C1c2c(O)cccc2C([C@@H]2O[C@H](CO)[C@@H](O)[C@H](O)[C@H]2O)c2cc(CO)cc(O)c21 (some centres not stated) | inactive: -1.11 |
| Nc1nc2[nH]cnc2c(=S)[nH]1 | inactive: -1.78 and inactive: -13.3 |
| Cc1c(OCC(F)(F)F)ccnc1C[S@@+]([O-])c1nc2ccccc2[nH]1 | inactive: 0.0214 |
| O=c1ccc2cc(O)c(O)cc2o1 | active: 6.03 |

(more compounds)

| Structure (SMILES) | ATP level |
| --- | --- |
| NS(=O)(=O)c1cc2c(cc1Cl)NC(C(Cl)Cl)NS2(=O)=O (configuration not stated) | inactive: -0.613 |
| CN[C@@H]1[C@H](O)[C@H](NC)[C@H]2O[C@@]3(O)C(=O)C[C@@H](C)O[C@H]3O[C@@H]2[C@H]1O | inactive: -0.204 |
| CN[C@H](CC(=O)O)C(=O)O | inactive: -0.794 |
| CC(=O)N[C@@H](C=O)[C@@H](O[C@H](C)C(=O)O)[C@H](O)[C@H](O)CO | inactive: 1.21 |
| CC(C)=CCC[C@@H](C)CC=O | inactive: -0.178 |
| Cc1onc(-c2ccccc2Cl)c1C(=O)N[C@@H]1C(=O)N2[C@@H]1SC(C)(C)[C@@H]2C(=O)O | inactive: 1.16 |
| CC12CCC(CC1=O)C2(C)C (configuration not stated) | inactive: 0.238 |
| CN[C@@H]1[C@@H](O[C@H]2O[C@H](CO)[C@@H](N)[C@H](O)[C@H]2O)OC2C[C@@H](N)[C@@H](O[C@H]3[C@H](O)[C@@H](O)[C@H](N)C[C@@H]3N)OC2[C@@H]1O (some centres not stated) | inactive: 0.683 |
| CC1(C)O[C@H]2CC(=O)OC[C@]23[C@H]2CC[C@@]4(C)[C@H](c5ccoc5)OC(=O)[C@H]5O[C@]54[C@]2(C)C(=O)C[C@@H]13 | inactive: -0.239 |
| CC(=O)Oc1cc(OC(C)=O)c2c(c1)O[C@H](c1ccc(OC(C)=O)c(OC(C)=O)c1)[C@@H](OC(C)=O)C2 | inactive: 1.8 |
| CC(C)CCC[C@@H](C)[C@H]1CC[C@H]2[C@@H]3CC(=O)[C@H]4C[C@@H](O)CC[C@]4(C)[C@H]3CC[C@]12C [5alpha-CHOLESTAN-3beta-OL-6-ONE] | inactive: -0.705 |
| CCCCCCOC(=O)NC(=N)c1ccc(NCc2nc3cc(C(=O)N(CCC(=O)OCC)c4ccccn4)ccc3n2C)cc1 | inactive: -1.61 |
| NCCCC(=O)O [gamma-AMINOBUTYRIC ACID HYDROCHLORIDE] | inactive: 0.687 |
| CCCCCCCCCCCCCCCCCCCCCCO | inactive: 1.15 |
| CC(=O)NC(Cc1ccccc1)C(=O)O (configuration not stated) | inactive: 0.76 |
| COc1ccc(O)cc1 | inactive: -2.58 |
| CCN(CC)CCNC(=O)c1cc(Cl)c(N)cc1OC | inactive: -3.02 |
| NCCCNCCCCNCCCN | inactive: 1.43 |
| COc1ccc(-c2oc3cc(OC)c(OC)c(OC)c3c(=O)c2OC)cc1 | inactive: -1.27 |
| CC(C)(CO)C(O)C(=O)NCCCO (configuration not stated) | inactive: -2.44 |
| CCOc1ccc2ccccc2c1C(=O)N[C@@H]1C(=O)N2[C@@H]1SC(C)(C)[C@@H]2C(=O)O | inactive: 0.132 |
| Cn1cnc2c1c(=O)[nH]c(=O)n2C | inactive: 1.5 |

| Structure (SMILES) | ATP level |
| --- | --- |
| CC1=NN(c2ccccc2)C(=O)C1 | inactive: -0.537 |
| C[n+]1c2cc(N)ccc2cc2ccc(N)cc21 | inactive: -21.2 |
| COc1ccc(-c2coc3cc(OC)ccc3c2=O)cc1 | inactive: 0.167 |
| O=C(O)CCNC(=O)c1ccccc1 | inactive: 1.61 |
| O=C(N[C@H](CO)[C@H](O)c1ccc([N+](=O)[O-])cc1)C(Cl)Cl | inactive: -7.02 |
| CCC[C@@H]1C[C@@H](C(=O)N[C@@H]([C@H]2O[C@H](SC)[C@H](O)[C@@H](O)[C@H]2O)[C@H](C)Cl)N(C)C1 | inactive: -1.3 |
| CN(C)CCC=C1c2ccccc2COc2ccccc21 | inactive: -15.6 |
| CC(C)[N+](C)(CCOC(=O)C1c2ccccc2Oc2ccccc21)C(C)C | inactive: -0.813 |
| CN1CCC[C@@H]1Cc1c[nH]c2ccc(CCS(=O)(=O)c3ccccc3)cc12 | inactive: 0.709 |
| Nc1ccccc1S(N)(=O)=O | inactive: 0.118 |
| CC1=CC(=O)C(C(C)C)=CC1=O | inactive: 1.72 |
| OCc1cccnc1 | inactive: -18.8 |
| O=Cc1ccccc1O[C@@H]1O[C@H](CO)[C@@H](O)[C@H](O)[C@H]1O | inactive: -2.31 |
| O=C(O)c1cn(C2CC2)c2cc(N3CCNCC3)c(F)cc2c1=O | inactive: -0.493 |
| CCOc1nc2cccc(C(=O)OCc3oc(=O)oc3C)c2n1Cc1ccc(-c2ccccc2-c2noc(=O)[nH]2)cc1 | inactive: 1.94 |
| Cn1c(=O)[nH]c2ncn(C)c2c1=O | inactive: 1.16 |
| C#CCN[C@@H]1CCc2ccccc21 | inactive: -0.458 |
| Cc1cc(C(C)(C)C)c(O)c(C(C)(C)C)c1 | inactive: -0.575 |
| COc1ccc2c(c1)OCC(Cc1ccc(OC)c(O)c1)C2=O (configuration not stated) | inactive: -0.066 |
| C=CCSSSCC=C | inactive: -0.00246 |
| O=C(O)C1CC([C@@H]2CCCCN2)CN2CCCCC12 (some centres not stated) | inactive: 1.72 |
